From PMC11417337
Results are given in words; binding and its absence hold for the method and conditions named. In cells and extracts the contact can be indirect.

The chains behind the UniProt entries cited, without tags or fusion partners. Where a name states a change or a piece, a line headed by the entry shows the natural chain unless it says otherwise. Residues count along the entry.
UniProt P48678, residues 1-647: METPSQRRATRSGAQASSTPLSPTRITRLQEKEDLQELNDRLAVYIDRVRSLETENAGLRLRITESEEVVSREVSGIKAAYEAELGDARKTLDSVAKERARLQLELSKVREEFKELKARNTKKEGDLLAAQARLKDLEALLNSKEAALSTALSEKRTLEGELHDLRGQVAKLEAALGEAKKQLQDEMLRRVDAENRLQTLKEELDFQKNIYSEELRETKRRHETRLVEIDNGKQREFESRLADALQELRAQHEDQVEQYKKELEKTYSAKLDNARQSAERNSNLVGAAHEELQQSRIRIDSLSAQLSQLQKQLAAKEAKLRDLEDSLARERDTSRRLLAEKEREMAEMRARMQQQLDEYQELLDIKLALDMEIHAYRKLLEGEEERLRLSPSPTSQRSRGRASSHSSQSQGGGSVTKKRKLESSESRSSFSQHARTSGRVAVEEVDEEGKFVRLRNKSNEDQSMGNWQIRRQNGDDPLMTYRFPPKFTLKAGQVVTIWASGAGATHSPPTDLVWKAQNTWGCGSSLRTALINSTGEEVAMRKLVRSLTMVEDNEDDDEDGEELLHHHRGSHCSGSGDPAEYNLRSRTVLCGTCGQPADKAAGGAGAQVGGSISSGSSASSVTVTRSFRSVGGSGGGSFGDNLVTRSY
UniProt Q61033: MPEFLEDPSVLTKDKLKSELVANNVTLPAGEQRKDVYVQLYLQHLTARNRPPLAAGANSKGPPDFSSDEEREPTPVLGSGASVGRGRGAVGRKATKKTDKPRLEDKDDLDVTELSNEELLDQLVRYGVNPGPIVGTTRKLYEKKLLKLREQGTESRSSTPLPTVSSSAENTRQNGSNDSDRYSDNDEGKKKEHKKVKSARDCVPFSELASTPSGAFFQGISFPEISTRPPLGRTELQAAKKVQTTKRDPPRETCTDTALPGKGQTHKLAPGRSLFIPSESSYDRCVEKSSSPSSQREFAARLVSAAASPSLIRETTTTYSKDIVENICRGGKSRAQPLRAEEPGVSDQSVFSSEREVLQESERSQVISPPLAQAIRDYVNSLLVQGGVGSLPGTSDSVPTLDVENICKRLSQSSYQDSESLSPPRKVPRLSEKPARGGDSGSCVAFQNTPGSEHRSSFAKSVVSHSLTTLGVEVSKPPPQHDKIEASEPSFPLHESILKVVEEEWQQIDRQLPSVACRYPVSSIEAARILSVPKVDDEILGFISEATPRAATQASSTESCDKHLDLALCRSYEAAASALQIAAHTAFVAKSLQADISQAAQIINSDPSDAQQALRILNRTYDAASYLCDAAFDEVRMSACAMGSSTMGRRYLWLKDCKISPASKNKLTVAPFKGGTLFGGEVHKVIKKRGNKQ

Target: lamin A/C (mouse (endogenous in mouse dermal fibroblasts)) (UniProt P48678)
Assay: co-IP; endogenous lamin A/C immunoprecipitated with the E1 anti-lamin A/C antibody from the soluble fraction of mouse dermal fibroblasts (IP buffer: 20 mM Tris-HCl pH 7.5, 150 mM NaCl, 2 mM EGTA, 2 mM MgCl2, 0.5% NP-40, 1 mM DTT, benzonase), western blot; Figure 4D: untransfected or control siRNA cells; Figure 5D: cells untreated or treated with rapamycin

LAP2α ΔLEM-like-LEM∗ mutant (from UniProt Q61033) (domain or fragment)
binding: no binding
